These results are taken from PubChem BioAssay AID220 (DTP/NCI, 2004).

This experiment has as its system CD8F1 mice, subcutaneous mammary adenocarcinoma, T/C%. In words: NCI In Vivo Anticancer Drug Screen. Data for tumor model Mammary Adenocarcinoma CD8F1 (subcutaneous) in CD8F1. Conditions: higher T/C = larger tumour. Put shortly:
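Compound-treated versus vehicle-treated mice with transplantable tumors; survival or tumor size compared as T/C.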

Setting [1] is: T/C endpoint: median tumor weight change, dose: 1000.0 mg/kg/injection, schedule: Q01DX001 (ip), vehicle: saline with Tween-80.
Setting [2] is: T/C endpoint: median tumor weight change, dose: 2000.0 mg/kg/injection, schedule: Q01DX001 (ip), vehicle: saline with Tween-80.

The list is a part of this screen's results and no random one: it gathers tests that were run many times, whatever their T/C, doses with no T/C, and many T/C values between a quarter and a half above the control. Other doses and runs of a compound stand elsewhere. T/C: endpoint of the treated group in % of that of the vehicle group. Schedules are NCI's codes, read here as Q, the interval in days (D) or hours (H), X, the number of doses. Some T/C values carry the count of animals alive at the toxicity check (mostly the fifth day); where none is given, no animal had died by that day. Some doses have a count of surviving animals in place of a T/C: the source holds a T/C of zero for them, seemingly a mark for toxic or unscored doses. Counts of survivors are from the toxicity check (mostly the fifth day) where no day follows; animals may have died later. Some doses were run more than once; their values stand side by side, smallest first.

Turning to `CCOC(=O)C1(c2ccccc2)C(=O)Oc2ccccc21` (stereo not drawn), the T/C (T/C endpoint: median tumor weight change, dose: 250.0 mg/kg/injection, schedule: Q01DX001 (ip), vehicle: saline with Tween-80, evaluated on day 33) is 129 % of control.

In the case of `CN(C)CCCNc1c2ccccc2nc2cccc([N+](=O)[O-])c12`, the survivor count is recorded as 6 of 10 (T/C endpoint: median tumor weight (est.), dose: 0.12 mg/kg/injection, schedule: Q07DX004 (ip), vehicle: saline); 0 of 10 on day 30 (T/C endpoint: median tumor weight (est.), dose: 250.0 micrograms/kg/injection, schedule: Q07DX005 (ip), vehicle: saline); 0 of 10 on day 30 (T/C endpoint: median tumor weight (est.), dose: 500.0 micrograms/kg/injection, schedule: Q07DX005 (ip), vehicle: saline). In addition, the T/C was 128 % of control (T/C endpoint: median tumor weight (est.), dose: 31.0 micrograms/kg/injection, schedule: Q07DX005 (ip), vehicle: saline, evaluated on day 30); 134 % of control (T/C endpoint: median tumor weight (est.), dose: 62.0 micrograms/kg/injection, schedule: Q07DX005 (ip), vehicle: saline, evaluated on day 30); 140 % of control (T/C endpoint: median tumor weight (est.), dose: 125.0 micrograms/kg/injection, schedule: Q07DX005 (ip), vehicle: saline, evaluated on day 30).

In the case of `O=CC=O`, for the setting “T/C endpoint: median tumor weight (est.), dose: 400.0 mg/kg/injection, schedule: Q07DX005 (ip), vehicle: Klucel (hydroxypropylcellulose) (HPC)”, the survivor count is listed as 6 of 10.

Regarding `CCCC(=O)O.CCCC(=O)O.CCCC(=O)O.CCCC(=O)O.[Rh].[Rh]`, under “T/C endpoint: median tumor weight change, dose: 0.62 mg/kg/injection, schedule: Q01DX001 (ip), vehicle: saline + alcohol, evaluated on day 29”, the T/C was 128 % of control. The survivor count runs as follows: (T/C endpoint: median tumor weight change, dose: 2.5 mg/kg/injection, schedule: Q01DX001 (ip), vehicle: saline + alcohol) 5 of 10 on day 29; (T/C endpoint: median tumor weight change, dose: 5.0 mg/kg/injection, schedule: Q01DX001 (ip), vehicle: saline + alcohol) 0 of 10 on day 29.

In the case of `CN(C)P(=O)(Oc1ccccc1)N(C)C`, the T/C (T/C endpoint: median tumor weight change, dose: 250.0 mg/kg/injection, schedule: Q01DX001 (ip), vehicle: saline with Tween-80, evaluated on day 39) is 139 % of control [9 of 10 alive on day 39]. Also, the survivor count is, setting by setting: under setting [1], 2 of 10 on day 39; under setting [2], 1 of 10 on day 39.

As for `O=C1C=CC(=O)N1c1ccc(Cl)cc1`, for the setting “T/C endpoint: median tumor weight (est.), dose: 10.0 mg/kg/injection, schedule: Q07DX003 (ip), vehicle: Klucel (hydroxypropylcellulose) (HPC), evaluated on day 21”, the T/C is 125 % of control. Moreover, the survivor count (T/C endpoint: median tumor weight (est.), dose: 40.0 mg/kg/injection, schedule: Q07DX003 (ip), vehicle: Klucel (hydroxypropylcellulose) (HPC)) is reported as 2 of 10.

Regarding `Nc1ncn(C2OC(CO)C(O)C2O)c(=O)n1` (stereo not drawn), the survivor count reads like this: (T/C endpoint: median tumor weight (est.), dose: 32.0 mg/kg/injection, schedule: Q07DX005 (ip), vehicle: saline) 5 of 10; (T/C endpoint: median tumor weight (est.), dose: 32.0 mg/kg/injection, schedule: Q07DX005 (ip), vehicle: suspension in saline) 5 of 10; (T/C endpoint: median tumor weight (est.), dose: 64.0 mg/kg/injection, schedule: Q07DX005 (ip), vehicle: suspension in saline) 4 of 10; (T/C endpoint: median tumor weight (est.), dose: 128.0 mg/kg/injection, schedule: Q07DX005 (ip), vehicle: suspension in saline) 4 of 10; (T/C endpoint: median tumor weight change, dose: 135.0 mg/kg/injection, schedule: Q01DX001 (ip), vehicle: saline) 6 of 10 on day 36.

With `Nc1nc(-c2cccc3ccccc23)cc2ccccc12`, the T/C (T/C endpoint: median tumor weight (est.), dose: 25.0 mg/kg/injection, schedule: Q07DX005 (ip), vehicle: saline with Tween-80, evaluated on day 30) is 145 % of control. Also, the survivor count is 6 of 10 on day 30 (T/C endpoint: median tumor weight (est.), dose: 400.0 mg/kg/injection, schedule: Q07DX005 (ip), vehicle: saline with Tween-80) and 2 of 10 on day 30 (T/C endpoint: median tumor weight (est.), dose: 800.0 mg/kg/injection, schedule: Q07DX005 (ip), vehicle: saline with Tween-80).

For the compound `CN(C)N=Nc1ccc(S(N)(=O)=O)cc1`, the T/C (T/C endpoint: median tumor weight (est.), dose: 200.0 mg/kg/injection, schedule: Q07DX005 (ip), vehicle: Klucel (hydroxypropylcellulose) (HPC), evaluated on day 30) was 138 % of control.

Turning to `CCN(CC)CCCNc1nccc2c(C)c3[nH]c4ccncc4c3cc12`, the survivor count is, setting by setting: (T/C endpoint: median tumor weight change, dose: 25.0 mg/kg/injection, schedule: Q01DX001 (ip), vehicle: other) 5 of 10 on day 32; (T/C endpoint: median tumor weight change, dose: 50.0 mg/kg/injection, schedule: Q01DX001 (ip), vehicle: other) 0 of 10 on day 27, 0 of 10 on day 29, 0 of 10 on day 32; (T/C endpoint: median tumor weight change, dose: 100.0 mg/kg/injection, schedule: Q01DX001 (ip), vehicle: other) 0 of 10 on day 27, 0 of 10 on day 29, 0 of 10 on day 32; (T/C endpoint: median tumor weight change, dose: 200.0 mg/kg/injection, schedule: Q01DX001 (ip), vehicle: other) 0 of 10 on day 29 and 0 of 10 on day 32; (T/C endpoint: median tumor weight change, dose: 400.0 mg/kg/injection, schedule: Q01DX001 (ip), vehicle: other) 0 of 10 on day 29 and 0 of 10 on day 32.

For the compound `CCc1ccc(C2=C(O)C(=O)C(c3ccccc3)=C(O)C2=O)cc1`, the survivor count (T/C endpoint: median tumor weight change, dose: 250.0 mg/kg/injection, schedule: Q01DX001 (ip), vehicle: Klucel (hydroxypropylcellulose) (HPC)) is reported as 4 of 10 on day 31 and the survivor count (T/C endpoint: median tumor weight change, dose: 500.0 mg/kg/injection, schedule: Q01DX001 (ip), vehicle: Klucel (hydroxypropylcellulose) (HPC)) was 0 of 10 on day 31.

Take `Nc1nc(N)c2c(Cl)c(CNc3ccc(Cl)c(Cl)c3)ccc2n1`: the survivor count (T/C endpoint: median tumor weight (est.), dose: 200.0 mg/kg/injection, schedule: Q07DX005 (ip), vehicle: saline with Tween-80) is 6 of 10 on day 30.

For `C/C=C/c1cc2n(c1)C(=O)c1cc(OC3OC(C)C(NC)C(C)(O)C3O)c(C)c(O)c1NC2O` (stereo not drawn), the T/C (T/C endpoint: median tumor weight (est.), dose: 2.0 micrograms/kg/injection, schedule: Q07DX005 (ip), vehicle: saline, evaluated on day 30) is 135 % of control [9 of 10 alive on day 30]. Besides, the survivor count (T/C endpoint: median tumor weight (est.), dose: 4.0 micrograms/kg/injection, schedule: Q07DX005 (ip), vehicle: saline) is 5 of 10 on day 30; the survivor count (T/C endpoint: median tumor weight (est.), dose: 8.0 micrograms/kg/injection, schedule: Q07DX005 (ip), vehicle: saline) is listed as 0 of 10 on day 30; the survivor count (T/C endpoint: median tumor weight (est.), dose: 16.0 micrograms/kg/injection, schedule: Q07DX005 (ip), vehicle: saline) is 0 of 10 on day 30; the survivor count (T/C endpoint: median tumor weight (est.), dose: 32.0 micrograms/kg/injection, schedule: Q07DX005 (ip), vehicle: saline) is on record as 0 of 10 on day 30.

Turning to `C[N+](C)(C)c1cc2c(nn1)Nc1ccccc1S2`, the T/C (T/C endpoint: median tumor weight (est.), dose: 6.25 mg/kg/injection, schedule: Q07DX005 (ip), vehicle: Klucel (hydroxypropylcellulose) (HPC), evaluated on day 32) is 143 % of control. In addition, where the note is “T/C endpoint: median tumor weight (est.), dose: 200.0 mg/kg/injection, schedule: Q07DX005 (ip), vehicle: Klucel (hydroxypropylcellulose) (HPC)”, the survivor count was 3 of 10 on day 32.

Turning to `C#CCNC1=C(C)C(=O)C2=C(C1=O)[C@H](COC(N)=O)[C@]1(OC)[C@@H]3N[C@@H]3CN21`, the survivor count (T/C endpoint: median tumor weight change, dose: 62.0 mg/kg/injection, schedule: Q01DX001 (ip), vehicle: distilled water + Tween-80) is 1 of 10 on day 28; the survivor count (T/C endpoint: median tumor weight change, dose: 125.0 mg/kg/injection, schedule: Q01DX001 (ip), vehicle: distilled water + Tween-80) is 0 of 10 on day 28; the survivor count (T/C endpoint: median tumor weight change, dose: 250.0 mg/kg/injection, schedule: Q01DX001 (ip), vehicle: distilled water + Tween-80) is given as 0 of 10 on day 28; the survivor count (T/C endpoint: median tumor weight change, dose: 500.0 mg/kg/injection, schedule: Q01DX001 (ip), vehicle: distilled water + Tween-80) is listed as 0 of 10 on day 28.

`O=C(O)CC(NC(=O)CP(=O)(O)O)C(=O)O` (stereo not drawn): the survivor count (T/C endpoint: median tumor weight change, dose: 50.0 mg/kg/injection, schedule: Q01DX001 (ip), vehicle: saline) is recorded as 6 of 10 on day 24.

`C[n+]1c(/C=N/NC(N)=S)ccc2ccccc21`: the survivor count is given as 1 of 10 on day 29 (T/C endpoint: median tumor weight change, dose: 500.0 mg/kg/injection, schedule: Q01DX001 (ip), vehicle: saline with Tween-80); 0 of 10 on day 29 under setting [1]; 1 of 5 on day 29 under setting [2].
